# These are yes or no findings as the source states them, for the method shown. Some entries that bind do so weakly or less than the wild type.
# Chains of the proteins cited; added tags and fusions are not shown. Residues count along the entry.
# UniProt P49238: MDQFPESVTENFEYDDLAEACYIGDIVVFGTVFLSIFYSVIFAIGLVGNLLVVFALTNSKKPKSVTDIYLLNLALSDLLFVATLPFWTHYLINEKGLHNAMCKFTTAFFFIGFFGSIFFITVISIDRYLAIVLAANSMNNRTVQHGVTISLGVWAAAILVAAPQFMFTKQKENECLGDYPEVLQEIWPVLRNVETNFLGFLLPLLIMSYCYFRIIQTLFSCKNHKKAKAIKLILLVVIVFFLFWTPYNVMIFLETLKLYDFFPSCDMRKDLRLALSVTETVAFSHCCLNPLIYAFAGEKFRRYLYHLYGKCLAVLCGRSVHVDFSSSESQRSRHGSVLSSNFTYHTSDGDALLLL
# UniProt P78423, residues 25-341: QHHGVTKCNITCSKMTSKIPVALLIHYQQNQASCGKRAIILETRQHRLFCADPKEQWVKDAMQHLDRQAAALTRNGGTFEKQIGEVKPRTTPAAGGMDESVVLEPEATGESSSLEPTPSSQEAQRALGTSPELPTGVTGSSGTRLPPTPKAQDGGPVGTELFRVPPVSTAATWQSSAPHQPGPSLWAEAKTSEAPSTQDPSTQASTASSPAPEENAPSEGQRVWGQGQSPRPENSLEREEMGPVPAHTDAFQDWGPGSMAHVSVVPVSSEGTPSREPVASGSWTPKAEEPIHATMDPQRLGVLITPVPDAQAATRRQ
# Target: CX3CR1 on CHO cells expressing CX3CR1 (CHO_(CX3CR1)) (UniProt P49238)
# Test: LigandTracer
substance,measurement,value
fluorescent CX3CL1-AF647 (from UniProt P78423) (ligand),binding,binds
